PubChem BioAssay AID1259254, NCATS – 2017
In all, the deposit lists about 59,000 reagents; this is a part drawn at random. About 1,550 of them (2.6%) count as active. 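G2 share is only a proxy for re-replication; each gene was hit by three separate siRNAs, and active genes were retested.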 The numbers tell different reagents against one gene apart. Further read-outs or replicates are left out here. Not stated in the record: the amount of reagent.

- Screen: 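Finding genes that stop cells copying their DNA twice in one cycle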 (primary screen)
- Cells: human HCT116 colorectal cancer cells
- Reagent: single siRNA against human genes
- Duration: 3 days
- Measurement: 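Nuclei stained with Hoechst and imaged; cell-cycle phase assigned by DNA content; G2 share scaled per plate, non-targeting siRNA 0%, GMNN siRNA 100%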
- Direction: G2 robust z-score: higher = more G2 cells, more excess DNA replication
- Call rule: 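An siRNA counts as active if its G2 robust z-score lies at least 5 MADs above the screen median; here such calls match roughly 38% of GMNN control or more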

Which result is listed for FLCN #1?
G2 robust z-score: 0.885; activity call: inactive

What did the screen give for FLCN #2?
G2 robust z-score: -0.688; activity call: inactive

What is on record for FLCN #3?
G2 robust z-score: -0.346; activity call: inactive

With NRG4 #1, how do the results read?
G2 robust z-score: -0.0751; activity call: inactive

For NRG4 #2, what does the deposit list?
G2 robust z-score: 3.19; activity call: inactive

With NRG4 #3, how do the results read?
G2 robust z-score: 0.153; activity call: inactive

What did the screen give for CLDN2 #1?
G2 robust z-score: -0.334; activity call: inactive

What is on record for CLDN2 #2?
G2 robust z-score: 3.03; activity call: inactive

For CLDN2 #3, how do the results read?
G2 robust z-score: -0.704; activity call: inactive

Entries listed so far whose gene name begins with N or n (3):
NRG4 #1 | G2 robust z-score: -0.0751; activity call: inactive
NRG4 #2 | G2 robust z-score: 3.19; activity call: inactive
NRG4 #3 | G2 robust z-score: 0.153; activity call: inactive

The results go on:
For GRM8 #1, how do the results read?
G2 robust z-score: -1.2; activity call: inactive

With GRM8 #2, what was measured?
G2 robust z-score: -0.73; activity call: inactive

For GRM8 #3, what was measured?
G2 robust z-score: 1.35; activity call: inactive

Which result is listed for CFAP47 #1?
G2 robust z-score: -0.267; activity call: inactive

How did the screen score CFAP47 #2?
G2 robust z-score: 1.28; activity call: inactive

With CFAP47 #3, what was measured?
G2 robust z-score: -0.162; activity call: inactive

For CFAP47 #4, how do the results read?
G2 robust z-score: -0.7; activity call: inactive

What is on record for CFAP47 #5?
G2 robust z-score: -0.0965; activity call: inactive

With CFAP47 #6, how do the results read?
G2 robust z-score: 0.604; activity call: inactive

How did the screen score CFAP47 #7?
G2 robust z-score: 3.19; activity call: inactive

What is on record for CFAP47 #8?
G2 robust z-score: 2.69; activity call: inactive

With CFAP47 #9, what does the deposit list?
G2 robust z-score: -0.392; activity call: inactive

Which result is listed for SEZ6L2 #1?
G2 robust z-score: 0.792; activity call: inactive

What did the screen give for SEZ6L2 #2?
G2 robust z-score: 0.141; activity call: inactive

For SEZ6L2 #3, what does the deposit list?
G2 robust z-score: -0.421; activity call: inactive
